For at least one compound, name, drawing or mass did not settle the structure.
Tested on: NCI-H929 cells
Test: Antiproliferative effect alone and in combination with dexamethasone against NCI-H929 cells
Type: cell-based
Conditions: 500 nM
Protocol: MOLM-13 cells in the logarithmic growth phase were diluted in a medium RPMI+[…], and NCI-H929 cells were diluted in a medium RPMI+10% FBS. The cells were plated at 4,000 cells/well in 96-well whole black plates (WHB) with 50 μL/well. After plating, the plates were incubated in an incubator at 5% CO2 and 37° C. for 24 h before the compounds were added. The compounds were prepared into a 10 mM stock solution in DMSO and diluted in a culture medium to the desired concentrations (a final DMSO concentration of 0.2%). 50 μL of the compound dilutions at final concentrations of 10,000, 3,333.33, 1,111.11, 370.37, 123.46, 41.15, 13.72, 4.57, 1.52, and 0 nM were added to the 96-well plates containing the cells, that is, each compound was serially diluted to 10 concentrations in duplicate. The plates were incubated at 5% CO2 and 37° C. for 72 h. When pharmaceutical partners were used, the concentrations of azacitidine and dexamethasone were kept at 200 nM and 500 nM respectively, and the compounds were serially three-fold diluted from 10,000 nM. After the incubation was complete, the plates were equilibrated at room temperature for 30 min. CellTiter-Glo® Reagent (Promega G7573) was added at 100 μL/well. The plates were shaken for 12 min on a microplate shaker. The luminescence value was measured at room temperature by the GloMax navigator (Promega GM2010). […]

C[C@@H]1C[C@H]2[C@@H]3CCC4=CC(=O)C=C[C@]4(C)[C@@]3(F)[C@@H](O)C[C@]2(C)[C@@]1(O)C(=O)CO [Dexamethasone]
antiproliferative activity against NCI-H929 cells at fixed concentration: no significant antiproliferative activity

Reference: patent US20250282746A1, “HALOGEN-SUBSTITUTED ISOINDOLINE COMPOUND AND USE THEREOF” (CHENGDU FENDI PHARMACEUTICAL CO., LTD., priority 2022, published 2025)
